Results from the supplement of paper PMC11732987, “Enantioselective OTUD7B fragment discovery through chemoproteomics screening and high-throughput optimisation” (Communications Chemistry, 2025).
This is one part of the list. The data scatter; read single values as rough.

Sequences of proteins named here, by UniProt entry; tags and fusion partners are left off. A change or cut given only in a name is not applied to a line headed by its entry.
UniProt P41212: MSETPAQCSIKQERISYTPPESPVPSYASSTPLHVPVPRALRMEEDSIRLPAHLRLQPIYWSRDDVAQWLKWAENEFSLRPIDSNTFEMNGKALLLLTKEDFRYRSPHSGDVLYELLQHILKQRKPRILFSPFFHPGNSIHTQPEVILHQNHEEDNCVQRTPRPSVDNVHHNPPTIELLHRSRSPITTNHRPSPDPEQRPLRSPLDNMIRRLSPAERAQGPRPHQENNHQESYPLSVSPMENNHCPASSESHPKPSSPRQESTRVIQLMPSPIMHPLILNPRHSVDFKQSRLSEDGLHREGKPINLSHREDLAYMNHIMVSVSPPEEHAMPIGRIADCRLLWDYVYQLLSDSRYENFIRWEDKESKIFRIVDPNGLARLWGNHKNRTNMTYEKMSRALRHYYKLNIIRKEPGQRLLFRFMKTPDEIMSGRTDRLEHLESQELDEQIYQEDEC
UniProt Q2NKX8: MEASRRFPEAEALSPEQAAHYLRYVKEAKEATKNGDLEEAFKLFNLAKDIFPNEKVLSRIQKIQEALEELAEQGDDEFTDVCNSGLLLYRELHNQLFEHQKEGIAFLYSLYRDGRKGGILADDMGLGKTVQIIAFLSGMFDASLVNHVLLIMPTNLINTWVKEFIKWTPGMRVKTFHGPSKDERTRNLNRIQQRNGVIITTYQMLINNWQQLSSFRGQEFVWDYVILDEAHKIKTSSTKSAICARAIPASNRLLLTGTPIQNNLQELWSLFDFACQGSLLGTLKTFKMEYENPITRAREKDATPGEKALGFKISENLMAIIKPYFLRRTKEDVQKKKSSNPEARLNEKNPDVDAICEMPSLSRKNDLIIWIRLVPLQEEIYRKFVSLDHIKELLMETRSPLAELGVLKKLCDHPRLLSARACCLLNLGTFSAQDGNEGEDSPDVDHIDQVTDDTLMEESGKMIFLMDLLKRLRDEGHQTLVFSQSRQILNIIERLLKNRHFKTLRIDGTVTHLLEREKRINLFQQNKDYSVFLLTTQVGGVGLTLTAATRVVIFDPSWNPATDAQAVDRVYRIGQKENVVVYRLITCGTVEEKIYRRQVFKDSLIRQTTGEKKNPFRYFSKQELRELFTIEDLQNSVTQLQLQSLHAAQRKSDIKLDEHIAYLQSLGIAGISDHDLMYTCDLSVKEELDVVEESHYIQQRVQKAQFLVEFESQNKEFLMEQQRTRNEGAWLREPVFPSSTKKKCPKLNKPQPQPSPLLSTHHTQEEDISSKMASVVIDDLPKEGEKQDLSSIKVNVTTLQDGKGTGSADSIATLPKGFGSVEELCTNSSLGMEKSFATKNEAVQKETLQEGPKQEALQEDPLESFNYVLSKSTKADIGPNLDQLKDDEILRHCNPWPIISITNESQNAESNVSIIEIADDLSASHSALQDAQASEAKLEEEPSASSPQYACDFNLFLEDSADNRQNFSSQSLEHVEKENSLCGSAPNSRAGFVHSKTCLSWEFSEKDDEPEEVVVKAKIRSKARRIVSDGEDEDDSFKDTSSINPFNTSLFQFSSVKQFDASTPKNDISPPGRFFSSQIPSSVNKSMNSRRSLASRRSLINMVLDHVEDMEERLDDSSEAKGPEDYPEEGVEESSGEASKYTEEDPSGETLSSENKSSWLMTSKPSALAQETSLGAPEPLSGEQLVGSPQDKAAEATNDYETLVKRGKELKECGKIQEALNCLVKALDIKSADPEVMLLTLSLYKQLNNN
UniProt Q9H2F5, whole entry, looked up: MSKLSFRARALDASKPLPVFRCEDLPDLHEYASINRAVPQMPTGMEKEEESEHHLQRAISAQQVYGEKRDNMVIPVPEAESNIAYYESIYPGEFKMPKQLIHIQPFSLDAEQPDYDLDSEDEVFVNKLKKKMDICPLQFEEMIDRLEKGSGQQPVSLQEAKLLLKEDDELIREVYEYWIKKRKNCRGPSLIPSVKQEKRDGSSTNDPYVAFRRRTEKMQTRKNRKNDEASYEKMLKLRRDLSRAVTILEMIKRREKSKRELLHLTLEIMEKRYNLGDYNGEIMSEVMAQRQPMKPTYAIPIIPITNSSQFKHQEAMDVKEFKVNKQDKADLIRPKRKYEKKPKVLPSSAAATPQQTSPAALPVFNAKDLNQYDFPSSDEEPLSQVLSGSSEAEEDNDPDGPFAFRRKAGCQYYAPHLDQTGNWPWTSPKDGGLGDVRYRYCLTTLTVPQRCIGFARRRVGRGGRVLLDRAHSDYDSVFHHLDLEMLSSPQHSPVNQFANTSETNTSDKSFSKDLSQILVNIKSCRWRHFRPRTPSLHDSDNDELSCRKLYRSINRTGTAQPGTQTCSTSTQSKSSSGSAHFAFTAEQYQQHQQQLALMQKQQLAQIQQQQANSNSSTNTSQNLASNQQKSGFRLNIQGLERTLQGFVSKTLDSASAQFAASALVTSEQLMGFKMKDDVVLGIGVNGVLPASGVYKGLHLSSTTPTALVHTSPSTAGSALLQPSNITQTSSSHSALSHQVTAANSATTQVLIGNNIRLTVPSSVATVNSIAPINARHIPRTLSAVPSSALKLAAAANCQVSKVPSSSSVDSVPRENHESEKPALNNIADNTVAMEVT
UniProt Q96A65: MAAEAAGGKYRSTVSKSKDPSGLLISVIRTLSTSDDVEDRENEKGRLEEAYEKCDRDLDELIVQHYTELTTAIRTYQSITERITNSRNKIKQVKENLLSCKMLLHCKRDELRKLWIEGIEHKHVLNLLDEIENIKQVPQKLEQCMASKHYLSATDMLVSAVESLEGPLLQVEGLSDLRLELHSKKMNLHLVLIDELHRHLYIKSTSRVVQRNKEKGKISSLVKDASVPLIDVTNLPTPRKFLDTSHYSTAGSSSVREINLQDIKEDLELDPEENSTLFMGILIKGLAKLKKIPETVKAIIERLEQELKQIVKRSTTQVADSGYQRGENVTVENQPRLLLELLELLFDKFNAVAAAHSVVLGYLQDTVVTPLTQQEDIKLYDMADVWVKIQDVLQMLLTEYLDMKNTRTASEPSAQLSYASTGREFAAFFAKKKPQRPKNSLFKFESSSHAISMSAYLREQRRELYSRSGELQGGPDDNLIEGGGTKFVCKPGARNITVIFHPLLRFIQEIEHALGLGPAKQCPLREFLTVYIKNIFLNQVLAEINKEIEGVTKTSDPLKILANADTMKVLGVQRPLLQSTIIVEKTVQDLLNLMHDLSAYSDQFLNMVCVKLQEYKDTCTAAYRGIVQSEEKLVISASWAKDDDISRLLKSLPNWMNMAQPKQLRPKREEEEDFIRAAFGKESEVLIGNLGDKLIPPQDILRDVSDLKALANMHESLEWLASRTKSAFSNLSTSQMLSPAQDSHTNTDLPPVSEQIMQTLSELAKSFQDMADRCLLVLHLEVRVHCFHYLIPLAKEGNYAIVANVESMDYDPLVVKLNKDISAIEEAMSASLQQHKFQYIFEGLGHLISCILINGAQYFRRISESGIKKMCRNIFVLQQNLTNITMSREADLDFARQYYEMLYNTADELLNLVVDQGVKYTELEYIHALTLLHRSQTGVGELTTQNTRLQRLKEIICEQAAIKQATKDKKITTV
UniProt Q9NX05: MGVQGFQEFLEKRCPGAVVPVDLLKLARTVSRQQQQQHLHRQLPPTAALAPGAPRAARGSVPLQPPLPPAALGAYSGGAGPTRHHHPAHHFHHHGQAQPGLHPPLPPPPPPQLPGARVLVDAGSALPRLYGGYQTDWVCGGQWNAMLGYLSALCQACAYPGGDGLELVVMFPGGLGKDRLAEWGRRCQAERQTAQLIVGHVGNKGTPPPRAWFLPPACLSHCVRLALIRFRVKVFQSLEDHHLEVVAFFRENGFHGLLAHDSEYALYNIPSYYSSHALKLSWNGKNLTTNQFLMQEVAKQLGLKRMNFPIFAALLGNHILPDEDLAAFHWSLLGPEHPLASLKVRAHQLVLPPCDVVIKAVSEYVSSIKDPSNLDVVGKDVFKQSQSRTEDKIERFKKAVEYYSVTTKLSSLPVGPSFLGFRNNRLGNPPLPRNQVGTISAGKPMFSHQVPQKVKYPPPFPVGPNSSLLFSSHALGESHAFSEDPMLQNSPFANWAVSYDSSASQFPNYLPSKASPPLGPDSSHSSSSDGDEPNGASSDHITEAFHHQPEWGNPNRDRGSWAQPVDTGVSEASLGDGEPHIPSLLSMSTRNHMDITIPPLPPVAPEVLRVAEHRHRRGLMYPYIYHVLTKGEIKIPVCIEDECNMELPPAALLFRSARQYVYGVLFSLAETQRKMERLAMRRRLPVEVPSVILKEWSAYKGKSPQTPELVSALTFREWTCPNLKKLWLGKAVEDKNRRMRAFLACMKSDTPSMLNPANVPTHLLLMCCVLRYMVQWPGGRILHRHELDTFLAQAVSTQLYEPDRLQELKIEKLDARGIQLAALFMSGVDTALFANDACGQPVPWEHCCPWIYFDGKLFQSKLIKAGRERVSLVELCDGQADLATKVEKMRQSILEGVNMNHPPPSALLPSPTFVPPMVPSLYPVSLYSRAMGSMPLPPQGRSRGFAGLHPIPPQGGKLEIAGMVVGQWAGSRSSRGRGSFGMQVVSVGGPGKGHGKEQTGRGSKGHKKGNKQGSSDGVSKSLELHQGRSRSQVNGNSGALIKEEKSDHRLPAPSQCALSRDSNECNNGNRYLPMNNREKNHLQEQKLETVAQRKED
UniProt Q9Y2J2: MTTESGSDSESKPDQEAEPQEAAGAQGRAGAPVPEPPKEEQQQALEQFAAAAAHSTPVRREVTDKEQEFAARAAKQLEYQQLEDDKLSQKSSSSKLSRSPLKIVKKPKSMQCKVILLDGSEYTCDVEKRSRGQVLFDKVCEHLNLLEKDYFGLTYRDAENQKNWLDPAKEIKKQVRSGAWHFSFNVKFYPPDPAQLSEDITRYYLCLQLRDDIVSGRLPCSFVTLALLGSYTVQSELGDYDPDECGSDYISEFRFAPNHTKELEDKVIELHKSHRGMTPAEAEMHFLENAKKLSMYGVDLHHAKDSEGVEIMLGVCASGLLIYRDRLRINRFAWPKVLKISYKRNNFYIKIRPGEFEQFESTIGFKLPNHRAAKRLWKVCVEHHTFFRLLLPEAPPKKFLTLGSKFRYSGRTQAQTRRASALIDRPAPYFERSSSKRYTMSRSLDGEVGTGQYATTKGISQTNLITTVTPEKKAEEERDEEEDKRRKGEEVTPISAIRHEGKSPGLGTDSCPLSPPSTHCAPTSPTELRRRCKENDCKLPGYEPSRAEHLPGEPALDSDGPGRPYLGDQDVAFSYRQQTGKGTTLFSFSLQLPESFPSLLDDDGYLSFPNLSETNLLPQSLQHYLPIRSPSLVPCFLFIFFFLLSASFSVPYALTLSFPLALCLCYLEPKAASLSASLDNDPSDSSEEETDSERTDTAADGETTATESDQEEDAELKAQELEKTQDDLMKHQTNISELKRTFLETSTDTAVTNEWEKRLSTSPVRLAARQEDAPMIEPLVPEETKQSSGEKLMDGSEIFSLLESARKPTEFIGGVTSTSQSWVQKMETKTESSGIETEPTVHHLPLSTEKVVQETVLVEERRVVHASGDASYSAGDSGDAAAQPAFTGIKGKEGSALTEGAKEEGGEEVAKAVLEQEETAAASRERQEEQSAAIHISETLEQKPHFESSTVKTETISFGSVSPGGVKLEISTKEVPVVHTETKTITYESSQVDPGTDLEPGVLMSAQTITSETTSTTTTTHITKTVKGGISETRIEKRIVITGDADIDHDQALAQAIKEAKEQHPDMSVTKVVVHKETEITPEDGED
UniProt Q9NRY5: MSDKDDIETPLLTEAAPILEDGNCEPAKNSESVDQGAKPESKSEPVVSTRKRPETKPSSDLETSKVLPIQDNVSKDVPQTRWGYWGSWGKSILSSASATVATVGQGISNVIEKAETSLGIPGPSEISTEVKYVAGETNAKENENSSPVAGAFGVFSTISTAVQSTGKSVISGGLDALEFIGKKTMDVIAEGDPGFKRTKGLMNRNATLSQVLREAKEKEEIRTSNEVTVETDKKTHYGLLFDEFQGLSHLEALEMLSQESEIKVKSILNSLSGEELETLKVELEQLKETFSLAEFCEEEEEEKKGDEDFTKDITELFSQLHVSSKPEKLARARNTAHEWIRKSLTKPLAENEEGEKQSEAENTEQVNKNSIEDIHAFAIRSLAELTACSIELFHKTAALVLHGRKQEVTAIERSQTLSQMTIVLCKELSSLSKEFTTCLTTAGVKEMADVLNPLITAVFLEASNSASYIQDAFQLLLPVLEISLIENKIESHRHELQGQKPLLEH
UniProt Q9Y282: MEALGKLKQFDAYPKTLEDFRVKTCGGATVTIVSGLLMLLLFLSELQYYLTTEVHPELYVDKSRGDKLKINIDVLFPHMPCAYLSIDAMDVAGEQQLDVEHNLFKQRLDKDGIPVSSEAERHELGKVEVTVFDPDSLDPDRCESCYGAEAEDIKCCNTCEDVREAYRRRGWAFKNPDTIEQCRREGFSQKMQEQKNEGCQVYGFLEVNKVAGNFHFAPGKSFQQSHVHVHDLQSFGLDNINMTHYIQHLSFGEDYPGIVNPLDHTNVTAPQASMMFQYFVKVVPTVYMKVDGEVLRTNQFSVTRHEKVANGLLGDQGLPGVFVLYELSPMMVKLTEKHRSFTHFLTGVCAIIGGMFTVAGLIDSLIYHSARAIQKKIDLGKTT

Compound: ClCC(=O)N[C@H]1CCCc2ccccc12
Assay: log2 mean competition ratio of IA-DTB cysteine labelling (DMSO/compound) (log2 ratio); higher = stronger cysteine engagement by compound
Conditions: 50 µM; treatment time: 4 h; cell line lysate: HEK293T
Experimental: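 IA-DTB competitive cysteine chemoproteomics in HEK293T RIPA lysate. Lysates were treated with compound 29 or 30 at 50 or 200 µM for 4 h, then IA-DTB (500 µM, 1 h), trypsin-digested, NeutrAvidin-enriched and analysed by diaPASEF. Competition ratio = intensity DMSO / intensity compound (n=4 treated, n=64 DMSO); binding: mean log2 CR ≥ 1 and p ≤ 0.05 plus QC filters. Target is the cysteine site.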

Target	log2 mean competition ratio
ETV6 C8 (UniProt P41212)	-0.306
ERCC6L C587 (UniProt Q2NKX8)	-0.281
EPC1 C566 (UniProt Q9H2F5)	-0.189
EXOC4 C100 (UniProt Q96A65)	0.198
FAM120C C354 (UniProt Q9NX05)	-0.0248
ERAP1 C193 (UniProt Q9NZ08)	-0.184
EPB41L3 C124 (UniProt Q9Y2J2)	-0.153
ESPL1 C1369 (UniProt Q14674)	-0.316
ESCO1 C362	-0.0376
FAM83H C789 (UniProt Q6ZRV2)	-0.35
EXPH5 C1081	-0.103
FAM114A2 C438 (UniProt Q9NRY5)	-0.242
FAM120B C344 (UniProt Q96EK7)	0.176
ESCO1 C515	-0.255
ERGIC3 C199 (UniProt Q9Y282)	0.371
F2R C411 (UniProt P25116)	-0.0154
EML4 C311 (UniProt Q9HC35)	0.0708
EPC1 C797 (UniProt Q9H2F5)	-0.0396
EXOSC7 C189 (UniProt Q15024)	0.15
ERI3 C245	-0.508

Same assay, conditions: 200 µM; treatment time: 4 h; cell line lysate: HEK293T

Target	log2 mean competition ratio
ETV6 C8 (UniProt P41212)	0.163
ERCC6L C587 (UniProt Q2NKX8)	0.0152
EPC1 C566 (UniProt Q9H2F5)	0.225
EXOC4 C100 (UniProt Q96A65)	-0.083
FAM120C C354 (UniProt Q9NX05)	0.125
ERAP1 C193 (UniProt Q9NZ08)	0.197
EPB41L3 C124 (UniProt Q9Y2J2)	0.141
ESPL1 C1369 (UniProt Q14674)	0.253
ESCO1 C362	-0.056
FAM83H C789 (UniProt Q6ZRV2)	0.145
EXPH5 C1081	0.0381
FAM114A2 C438 (UniProt Q9NRY5)	-0.303
FAM120B C344 (UniProt Q96EK7)	0.342
ESCO1 C515	0.0803
ERGIC3 C199 (UniProt Q9Y282)	0.34
F2R C411 (UniProt P25116)	0.268
EML4 C311 (UniProt Q9HC35)	-0.373
EPC1 C797 (UniProt Q9H2F5)	0.102
EXOSC7 C189 (UniProt Q15024)	-0.248
ERI3 C245	0.0807
